PubChem BioAssay AID720703 | Peter MacCallum Cancer Centre, 2013

- Assay: 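Kinase knock-down screen for links between AT1R and EGFR signalling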 (primary screen)
- System: immortalised, SV40-transformed mammary epithelial cells from human, with stable expression of tagged AT1R
- Reagents: siRNA pool against human genes, 40 nM siRNA pool per well
- Time to read-out: 72 h from transfection to lysis and read-out
- Challenge: angiotensin II stimulation (dose and duration not given); EGFR inhibitor AG1478 also listed
- Measured: 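AlphaScreen bead assay of phosphorylated ERK1/2 in cell lysates, corrected for well confluency, converted to robust z-scores and averaged across two technical replicate plates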
- Direction: phospho-ERK z-score: higher = more ERK phosphorylation after angiotensin II, relative to plate
- Call rule: 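Pools were ordered by robust z-score and 50 top-ranked pools, whether they raised or lowered the signal, were chosen for secondary testing; no numeric threshold was reported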
- Meaning of the calls: active = picked for secondary screen; inactive = not picked
In all, the deposit lists 714 reagents; below is a random part of them. Of all reagents, 50 (7%) are marked active. 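Chosen pools sit at both extremes, so both low and high scores count as candidates; some pools appear more than once.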

| gene symbol | phospho-ERK z-score, replicate mean | call |
| --- | --- | --- |
| PFKFB1 | -0.86 | inactive |
| NRBP2 | 0.55 | inactive |
| DDR1 | 0.4 | inactive |
| BMPR2 | 0.58 | inactive |
| MET | 0.58 | inactive |
| DCK | -0.23 | inactive |
| LIMK2 | 1.35 | inactive |
| STK39 | 0.06 | inactive |
| PKDCC | -0.03 | inactive |
| DGKD | -0.99 | inactive |
| TGFBR2 | -0.1 | inactive |
| KIT | -0.38 | inactive |
| PRKCZ | -0.55 | inactive |
| CLK1 | 1.52 | inactive |
| STK33 | -1.06 | inactive |
| NEK4 | 1.17 | inactive |
| AXL | -0.36 | inactive |
| MARK3 | -1 | inactive |
| PRKACB | 0.86 | inactive |
| ALPK3 | -0.64 | inactive |
| MAST4 | 0.18 | inactive |
| SGK3 | 1.38 | inactive |
| EPHB1 | 1.31 | inactive |
| PCK2 | 1.2 | inactive |
| ROR1 | -1.12 | inactive |
| CDC42BPB | -0.4 | inactive |
| STK26 | 0.23 | inactive |

Reprinted from above for reference:
| gene symbol | phospho-ERK z-score, replicate mean | call |
| --- | --- | --- |
| NRBP2 | 0.55 | inactive |
| DDR1 | 0.4 | inactive |
| BMPR2 | 0.58 | inactive |
| MET | 0.58 | inactive |

Continued:
| gene symbol | phospho-ERK z-score, replicate mean | call |
| --- | --- | --- |
| FGFRL1 | -0.55 | inactive |
| PAK2 | -0.18 | inactive |
| STK4 | -0.39 | inactive |
| RNASEL | -0.82 | inactive |
| MAPK8 | -0.59 | inactive |
| CAMK2D | -0.52 | inactive |
| RPS6KL1 | 0.11 | inactive |
| ACVR2B | -0.25 | inactive |
| PDGFRA | 0.66 | inactive |
| EPHB2 | -0.28 | inactive |
| HK1 | 0.24 | inactive |
| CSNK1G1 | -1.52 | active |
| TRIB2 | -0.65 | inactive |
| WNK2 | 0.75 | inactive |
| ERBB4 | -0.48 | inactive |
| EPHA8 | 1.23 | inactive |
| PLK3 | -1.32 | active |
| BCR | -0.58 | inactive |
